# Results published in PubChem BioAssay AID504467 (National Center for Advancing Translational Sciences (NCATS), 2011).
# Out of some 330,000 compounds screened, about 7,700 (2.3%) were called active. Inconclusive results, whose numbers are uncertain, are shown with a selection of clear calls. Calls come from the whole dose curve; as a rule, active = well fitted inhibition curve with a large enough effect; inconclusive = small, poorly fitted or top-dose-only effect, or effect the other way; inactive = flat fitted curve, though single readings scatter. Where the call is inconclusive, the potency comes from a doubtful curve fit.
# Test: qHTS screen for small molecules that inhibit ELG1-dependent DNA repair in human embryonic kidney (HEK293T) cells expressing luciferase-tagged ELG1; note: nearly all actives have a fitted effect of over 55% in size
# Conditions: HEK293T ELG1-luciferase reporter, luminescence, 16 h, DNA damage induced by 5-fluorouridine; activity change, negative = inhibition: at 46.1 µM (top of the series)
# Summary of the method: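 Overnight (16 hr) co-exposure of 2,000 cells/well to 5-fluorouridine and compound at 37 °C preceded detection. Luciferase was quantified via ONE-Glo luminescence; loss of signal denotes inhibition.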
# % is set by controls: 0 for no effect and ±100 for the full control effect; potency is the fitted concentration of half-maximal effect.
SMILES,Potency,"activity change, negative = inhibition"
CCOC(=O)c1ccc2nc(NC(NC(C)=O)(C(=O)OC)C(F)(F)F)sc2c1 (configuration not stated),inactive,–
CCOc1ccc(CCNC(=O)CN2C(=O)NC(CCSC)C2=O)cc1OCC (configuration not stated),inactive,–
O=[N+]([O-])c1ccc(C2CN=C(Nc3ccccc3)S2)cc1 (configuration not stated),"inconclusive: 8.2 µM [activator, partial curve, poor fit]",–
COc1ccccc1/C=C1\SC(=S)N(CCC(=O)Nc2cc(C)on2)C1=O,inactive,–
Cn1c2ccccc2c(=O)c2ccc(C#Cc3ccccn3)cc21,"inconclusive: 9.2 µM [activator, single point]",–
COc1ccc(C(=O)N2CCC(C(=O)Nc3ccc4c(c3)OCCO4)CC2)cc1,"inconclusive: 23.1 µM [activator, single point]",–
O=C(Nc1ccc(F)c(Cl)c1)Nc1ccc(Cl)cn1,"inconclusive: 16.4 µM [activator, partial curve, poor fit]",–
Cc1nc(C)c(-c2ccc(SCC(=O)Nc3cccc(Cl)c3)nn2)s1,"inconclusive: 29.1 µM [inhibitor, single point]",–
COc1ccccc1C(=O)Nc1ccc(N2CCN(S(C)(=O)=O)CC2)cc1,"inconclusive: 11.6 µM [activator, partial curve]",–
O=C(CCc1nnc2ccc(NCc3ccco3)nn12)N1CCN(c2ccccc2)CC1,"inconclusive: 23.1 µM [inhibitor, single point]",–
Cc1ccc(C)c(SCC(=O)Nc2cccc(S(=O)(=O)NC3=NCCCCC3)c2)c1,"inconclusive: 25.9 µM [inhibitor, single point]",–
COc1cccc(-c2cc3nc4c(c(N5CCC6(CC5)OCCO6)n3n2)CCC4)c1,"inconclusive: 16.4 µM [inhibitor, single point]",–
O=C(O)C1C2CCC(C2)C1C(=O)Nc1nc2ccccc2s1 (configuration not stated),"inconclusive: 16.4 µM [activator, single point]",–
COc1cccc(-c2nc(-c3ccccc3)no2)c1,"inconclusive: 7.31 µM [activator, partial curve]",–
O=C(Nc1ccc(Br)c(C(F)(F)F)c1)c1ccccc1,"inconclusive: 20.6 µM [activator, single point]",–
COc1ccccc1C1CC(c2cccc(NS(C)(=O)=O)c2)=NN1S(=O)(=O)c1ccccc1 (configuration not stated),"inconclusive: 29.1 µM [inhibitor, single point]",–
Clc1ccc(/C=N/Nc2ncnc3ccccc23)cc1Cl,"inconclusive: 9.2 µM [activator, partial curve]",–
COc1ccc(C(NC(=O)C(C)C)c2ccc3cccnc3c2O)cc1 (configuration not stated),active: 2.31 µM,–
O=C(C1CCN(c2ncnc3c2nc2n3CCCCC2)CC1)N1CCN(c2cccc(Cl)c2)CC1,active: 2.31 µM,–
Cc1nn(C)cc1/C=N\NC(=O)c1ccc(Cn2cc(Cl)cn2)cc1,inactive,–
O=c1[nH]c(CN2CCN(S(=O)(=O)c3ccc(Cl)cc3)CC2)nc2cc(Cl)ccc12,"inconclusive: 18.4 µM [inhibitor, partial curve, poor fit]",–
COc1ccc(C(=O)NC(C(=O)N2CCc3ccccc32)C(C)C)cc1 (configuration not stated),"inconclusive: 18.4 µM [activator, single point]",–
Cc1ccc2oc(-c3cccc(NC(=O)c4cc(-n5cnnc5)ccc4Cl)c3)nc2c1,"inconclusive: 9.2 µM [activator, partial curve, poor fit]",–

SMILES,Potency,"activity change, negative = inhibition"
Cc1cc(C)c2[nH]c(=O)c(C(c3nnnn3C(C)(C)C)N3CCN(C(=O)c4ccco4)CC3)cc2c1 (configuration not stated),"inconclusive: 23.1 µM [inhibitor, single point]",–
Cc1ccccc1NC(=S)N(CCN1CCOCC1)Cc1ccccc1F,inactive,–
CCCCn1c(SC(C)C(=O)c2ccc(OC)cc2)nc2cc(S(N)(=O)=O)ccc21 (configuration not stated),"inconclusive: 6.31 µM [inhibitor, single point]",–
COc1ccc(NC(=O)CN(Cc2ccccc2)Cc2ccccc2)cc1S(N)(=O)=O,inactive,–
CCCN(CCC)C(=O)c1cn(C)c2ccc(S(=O)(=O)N3CCCC3)cc2c1=O,"inconclusive: 20.6 µM [activator, single point]",–
Cc1scc(C(=O)N/N=C/c2ccc([N+](=O)[O-])o2)c1C,inactive,–
Cc1cc(C)c(C(=O)/C=C/c2cccs2)c(=O)[nH]1,"inconclusive: 10.3 µM [inhibitor, partial curve]",–
COc1ccc(OC)c(NC(=O)CN(C)CCOc2ccc(Br)cc2)c1,"inconclusive: 0.259 µM [inhibitor, full curve, poor fit]",–
c1ccc(-c2nc(NCCCN3CCOCC3)c3ccccc3n2)cc1,"inconclusive: 20.6 µM [inhibitor, single point]",–
CCCc1nc2c(=O)n(C)c(=O)nc-2n(C)n1,active: 4.61 µM,–
CCc1nc2ccccc2n1CC(=O)Nc1cc(C)on1,"inconclusive: 0.58 µM [activator, partial curve]",–
Cc1ccc(C(=O)CCS(=O)(=O)c2ccc(Cl)cc2)cc1,inactive,–
Cc1cccc(N=Nc2cn[nH]c2-c2ccco2)c1,"inconclusive: 23.1 µM [activator, partial curve]",–
COc1cc2ccccc2cc1C(=O)NC1CCCCC1,"inconclusive: 16.4 µM [activator, partial curve]",–
O=C(O)CSCC(=O)N(c1ccccc1)c1ccccc1,inactive,–
O=C(c1ccco1)N1CCN(C(=O)c2ccc(COc3ccc4c(c3)CCC4)o2)CC1,"inconclusive: 35.5 µM [inhibitor, single point]",–
CCN1C(=O)CSc2ccc(C(=O)NCc3ccc(OC)cc3)cc21,–,inconclusive: 18% [activator]
CCCc1cc(Nc2c(C)n(C)n(-c3ccccc3)c2=O)n2c(nc3ccccc32)c1C#N,"inconclusive: 13 µM [inhibitor, partial curve, poor fit]",–
Cc1nc(/C(N)=N/OC(=O)c2ccccc2Cl)c(C(F)(F)F)o1,"inconclusive: 23.1 µM [activator, partial curve]",–
Cc1ccc2nc(N(CCCN(C)C)C(=O)c3ccc(S(=O)(=O)N4CCc5ccccc5C4)cc3)sc2c1,inactive,–
Cc1ccsc1C(=O)N1CCCC(CO)(Cc2ccccc2)C1 (configuration not stated),inactive,–
COc1ccc(CCN(Cc2cccs2)S(=O)(=O)c2ccc(-n3cnnn3)c(OC)c2)cc1OC,"inconclusive: 18.4 µM [inhibitor, single point]",–
Nc1nc(Sc2ccc([N+](=O)[O-])cc2[N+](=O)[O-])n[nH]1,"inconclusive: 16.4 µM [activator, single point]",–

# Some of these compounds in order of formula weight, low to high:
SMILES,Potency,"activity change, negative = inhibition"
c1ccc(-c2nc(NCCCN3CCOCC3)c3ccccc3n2)cc1,"inconclusive: 20.6 µM [inhibitor, single point]",–
CCN1C(=O)CSc2ccc(C(=O)NCc3ccc(OC)cc3)cc21,–,inconclusive: 18% [activator]
O=C(c1ccco1)N1CCN(C(=O)c2ccc(COc3ccc4c(c3)CCC4)o2)CC1,"inconclusive: 35.5 µM [inhibitor, single point]",–
CCCc1cc(Nc2c(C)n(C)n(-c3ccccc3)c2=O)n2c(nc3ccccc32)c1C#N,"inconclusive: 13 µM [inhibitor, partial curve, poor fit]",–
COc1ccc(NC(=O)CN(Cc2ccccc2)Cc2ccccc2)cc1S(N)(=O)=O,inactive,–
Cc1ccc(C)c(SCC(=O)Nc2cccc(S(=O)(=O)NC3=NCCCCC3)c2)c1,"inconclusive: 25.9 µM [inhibitor, single point]",–

# (further entries)

SMILES,Potency,"activity change, negative = inhibition"
Cc1cccc(Nc2ncnc3nc[nH]c23)c1,"inconclusive: 9.2 µM [activator, partial curve]",–
COc1ccc(OC)c(NC(=O)Nc2cc(NC(=O)Nc3cc(OC)ccc3OC)c(C)nc2C)c1,"inconclusive: 29.1 µM [activator, partial curve, poor fit]",–
Cc1cc(NC(=O)CN(C)CC(=O)Nc2ccc(Cl)c(C(F)(F)F)c2)no1,"inconclusive: 29.1 µM [inhibitor, single point]",–
O=C(C1CCN(S(=O)(=O)c2cccc3nsnc23)CC1)N1CCc2ccccc21,"inconclusive: 18.4 µM [inhibitor, single point]",–
CC1=C(C(=O)NC2CC(C)(C)Cc3c2cnn3-c2cccc(F)c2)OCCO1 (configuration not stated),"inconclusive: 0.13 µM [inhibitor, full curve, poor fit]",–
COc1ccc(S(=O)(=O)N(C)C)cc1NC(=O)CCNC(=O)c1ccccc1OC,inactive,–
O=C(C1CC1)N1CCc2cc(S(=O)(=O)NCC3COc4ccccc4O3)ccc21 (configuration not stated),inactive,–
CCCN(CCC)c1nc(Cl)nc(NCCN2CCOCC2)n1,active: 23.1 µM,–
COc1ccc(COc2cc(-c3cccc(OC)c3)nc3ccc(NC(=O)c4ccc(Cl)cc4)cc23)cc1,"inconclusive: 13 µM [inhibitor, partial curve, poor fit]",–
COc1ccc(Cc2noc(-c3ccc(C)cc3)n2)cc1,"inconclusive: 10.3 µM [activator, partial curve]",–
CCn1c(SCC(=O)Nc2cc(Cl)ccc2OC)nnc1C1CC1,inactive,–
Cc1csc(C(C)N(C)C(=O)c2ccc(OC3CCN(Cc4ccccn4)CC3)cc2)n1 (configuration not stated),"inconclusive: 14.6 µM [inhibitor, partial curve, poor fit]",–
CCOc1ccc(C(=O)CCNC(Cc2cnc[nH]2)C(=O)O)cc1 (configuration not stated),"inconclusive: 29.1 µM [activator, single point]",–
COc1ccc(-c2cc(C(=O)N/N=C(\C)c3cccnc3)c3ccccc3n2)cc1,"inconclusive: 14.6 µM [activator, partial curve]",–
Cc1ccc(F)cc1NC(=O)c1ccc2c(c1)OCO2,"inconclusive: 14.1 µM [activator, partial curve, poor fit]",–
O=C(Nc1cc(NC(=O)c2ccccc2F)ccc1Cl)c1ccccc1,inactive,–
CC(=O)c1ccc(NC(=O)Cc2cccs2)cc1,"inconclusive: 18.3 µM [activator, partial curve]",–
CCNC(=O)N1CCCC(C(=O)c2ccc(-c3ccccc3)cc2)C1 (configuration not stated),"inconclusive: 23.1 µM [activator, partial curve]",–
O=C(Nc1ccccc1)C1=C[C@@H](C2CCCCC2)C[C@@H](OCCCCO)O1,"inconclusive: 11.6 µM [activator, partial curve]",–
O=C(CCC(=O)N1CCN(Cc2ccc(F)cc2)CC1)Nc1nnc(C2CCCCC2)s1,"inconclusive: 10.3 µM [inhibitor, partial curve]",–
CN(C(=O)COC(=O)CNC(=O)c1sc2ccccc2c1Cl)c1ccccc1,inactive,–
